# Data from the supplement of paper PMC11732987, “Enantioselective OTUD7B fragment discovery through chemoproteomics screening and high-throughput optimisation” (Communications Chemistry, 2025).
# The list shows a part of the results. The data scatter; read single values as rough.
# Target: SARS1 C162 (UniProt Q5T5C7)
# Experiment: log2 mean competition ratio of IA-DTB cysteine labelling (DMSO/compound) (log2 ratio); higher = stronger cysteine engagement by compound
# Conditions: 50 µM; treatment time: 4 h; cell line lysate: HEK293T
# Protocol: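 IA-DTB competitive cysteine chemoproteomics in HEK293T RIPA lysate. Lysates were treated with compound 29 or 30 at 50 or 200 µM for 4 h, then IA-DTB (500 µM, 1 h), trypsin-digested, NeutrAvidin-enriched and analysed by diaPASEF. Competition ratio = intensity DMSO / intensity compound (n=4 treated, n=64 DMSO); binding: mean log2 CR ≥ 1 and p ≤ 0.05 plus QC filters. Target is the cysteine site.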
row,Compound,log2 mean competition ratio
1,O=C(CCl)N[C@H]1CCCc2ccccc21,0.462
2,O=C(CCl)N[C@@H]1CCCc2ccccc21,0.202

# Same assay, conditions: 200 µM; treatment time: 4 h; cell line lysate: HEK293T
row,Compound,log2 mean competition ratio
1,O=C(CCl)N[C@H]1CCCc2ccccc21,0.0736
2,O=C(CCl)N[C@@H]1CCCc2ccccc21,-0.264
